Consider one substance from publication PMC2483941.

Chains of the proteins cited; added tags and fusions are not shown. Residues count along the entry.
UniProt P08560, residues 19-368: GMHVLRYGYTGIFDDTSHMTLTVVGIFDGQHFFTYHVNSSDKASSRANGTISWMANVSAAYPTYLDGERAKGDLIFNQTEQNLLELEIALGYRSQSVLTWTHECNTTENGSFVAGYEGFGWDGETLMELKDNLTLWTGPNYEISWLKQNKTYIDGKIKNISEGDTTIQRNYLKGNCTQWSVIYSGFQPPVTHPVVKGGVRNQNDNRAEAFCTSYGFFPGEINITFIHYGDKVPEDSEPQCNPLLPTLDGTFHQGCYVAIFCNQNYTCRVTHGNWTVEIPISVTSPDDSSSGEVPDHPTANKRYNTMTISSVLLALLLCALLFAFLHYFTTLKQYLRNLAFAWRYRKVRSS
UniProt P14334, residues 20-183: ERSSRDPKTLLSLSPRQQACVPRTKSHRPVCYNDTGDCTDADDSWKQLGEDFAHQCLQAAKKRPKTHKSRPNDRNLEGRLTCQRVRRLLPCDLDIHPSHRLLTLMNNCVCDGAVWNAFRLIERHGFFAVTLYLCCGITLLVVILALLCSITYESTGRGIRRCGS

These are yes or no findings as the source states them, for the method shown. In cells and extracts the contact can be indirect. Some binding calls cover weakened binding; strength is not graded here.

Assay [1] deals with Human cytomegalovirus (HCMV) UL18, MHC class I homolog (human cytomegalovirus (HCMV)) (UniProt P08560). Briefly: co-IP; […]; antibody ([…]) 2 h at 4°C, […].
Assay [2] has as its target Human cytomegalovirus (HCMV) US6 glycoprotein (human cytomegalovirus (HCMV)) (UniProt P14334). Briefly: co-IP; HeLa or HeLa-US6 cells infected with vvWT or vvUL18, lysed in 1% digitonin in PBS with protease inhibitors; antibody (anti-US6, anti-UL18 10C7, anti-MHC class I, anti-tapasin) 2 h at 4°C, Protein G-Sepharose, washed four times with 0.1% digitonin; immunoblot. (In western blotting, separated proteins are transferred to a membrane and probed.)

In the case of TAP1 (from UniProt Q03518 1-748), the binding result in assay [1] and in assay [2] was “binds” each time.
